From patent US20120021077A1, “SYNERGISTIC HERBAL COMPOSITION FOR TREATMENT OF RHEUMATIC AND MUSCULO-SKELETAL DISORDERS (RMSDS)” (priority 2007, published 2012)
Like-named read-outs stand apart in the source and are kept apart here. For some assays here: At least one structure is not confirmed: it was looked up by name or label, or the drawing left a doubt. Some entries share one result that the patent states for a list of compounds.

Legend:
OA cartilage explants = test: Nitric oxide (NO) release by OA cartilage explants; type: cell-based, human
[1] = test system: Tail flick / formalin induced paw licking in mice; test: Central analgesic models (formalin-induced, tail flick); type: in vivo, albino mice; settings: no activity at higher dose tested
[2] = test system: human OA cartilage explants; test: Glycosaminoglycan (GAG) release from human OA cartilage explants; type: cell-based; settings: long term = at least 3 of 4 time points, short term = 1 or 2
Procedure: Aqueous extracts of each capsule were freshly prepared as required. Contents of each capsule were solubilized in distilled water (10 mG/mL) by limited autoclaving. Each extract was filter sterilized prior to addition to cartilage explants at the required final concentration. This method of herbal extract preparation gave reproducible sterility and biological activity (Sumantran et al, 2007).
Patients (age 55-75 years) suffered from chronic osteoarthritis (OA) for 5-15 years prior to knee replacement surgery. Cartilage integrity was recorded by macroscopic and microscopic examination, using the Outerbridge scale. […]
Total GAG levels in CM samples were measured by the dimethylmethylene blue assay using Chondroitin sulphate as a standard (Hoemann et al, 2002). […]
GAG content is expressed as microgram equivalents of Chondroitin sulphate. […] Each marker is measured at each time point for each CM sample derived from each patient.
Levels of GAG, NO, or aggrecan levels in CM samples from explants at each time, point, per patient, treated with/without drug; were tested for statistical significance at the 95% confidence level using the Students 2 tailed t-test for paired samples. We calculated the effect of drug extracts in each CM sample, at each time point, per patient sample; using the ratio shown below: […]

| SMILES | Nitric oxide (NO) release, decrease (words) (OA cartilage explants) | Nitric oxide (NO) release, decrease (words) (OA cartilage explants; listed as celecoxib) | dose with central analgesic activity [1] | Glycosaminoglyan (GAG) release, decrease [2] |
| --- | --- | --- | --- | --- |
| Cc1ccc(-c2cc(C(F)(F)F)nn2-c2ccc(S(N)(=O)=O)cc2)cc1 [Celecoxib] | No significant | did not significantly decrease | > 400 mg/kg | Short term |
| N[C@H]1C(O)O[C@H](CO)[C@@H](O)[C@@H]1O (some centres unmarked) [Glucosamine] | – | – | > 400 mg/kg | – |
